Hit rate of the full screen: of about 580,000 compounds, about 6,100 (1.1%) were called active. Inconclusive results, whose numbers are uncertain, are shown with a selection of clear calls. Calls come from the whole dose curve; as a rule, active = well fitted inhibition curve with a large enough effect; inconclusive = small, poorly fitted or top-dose-only effect, or another doubt; inactive = no such curve, though single readings can be large or run the other way. Where the call is inconclusive, the potency comes from a doubtful curve fit.
These molecules were tested against Polyunsaturated fatty acid lipoxygenase ALOX12 (Homo sapiens) (UniProt P18054) (assay: Primary qHTS assay for inhibitors of human arachidonate 12S-lipoxygenase (ALOX12): Round 2). Conditions: purified 12hLO, xylenol orange hydroperoxide absorbance; series mostly up to 108 µM.
Procedure, shortened: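 Hydroperoxide product was detected by ferrous iron/xylenol orange as the 573 to 405 nm absorbance ratio. Arachidonic acid at 40 uM (final) was turned over for 30 min at room temperature by 150 nM human 12hLO, pH 7.0 Hepes buffer, after 15 min compound preincubation.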
Potency is the fitted concentration of half-maximal effect.

Amino acid sequences for entries named in this document (tags omitted). A change or cut given only in a name is not applied to a line headed by its entry.
UniProt P18054: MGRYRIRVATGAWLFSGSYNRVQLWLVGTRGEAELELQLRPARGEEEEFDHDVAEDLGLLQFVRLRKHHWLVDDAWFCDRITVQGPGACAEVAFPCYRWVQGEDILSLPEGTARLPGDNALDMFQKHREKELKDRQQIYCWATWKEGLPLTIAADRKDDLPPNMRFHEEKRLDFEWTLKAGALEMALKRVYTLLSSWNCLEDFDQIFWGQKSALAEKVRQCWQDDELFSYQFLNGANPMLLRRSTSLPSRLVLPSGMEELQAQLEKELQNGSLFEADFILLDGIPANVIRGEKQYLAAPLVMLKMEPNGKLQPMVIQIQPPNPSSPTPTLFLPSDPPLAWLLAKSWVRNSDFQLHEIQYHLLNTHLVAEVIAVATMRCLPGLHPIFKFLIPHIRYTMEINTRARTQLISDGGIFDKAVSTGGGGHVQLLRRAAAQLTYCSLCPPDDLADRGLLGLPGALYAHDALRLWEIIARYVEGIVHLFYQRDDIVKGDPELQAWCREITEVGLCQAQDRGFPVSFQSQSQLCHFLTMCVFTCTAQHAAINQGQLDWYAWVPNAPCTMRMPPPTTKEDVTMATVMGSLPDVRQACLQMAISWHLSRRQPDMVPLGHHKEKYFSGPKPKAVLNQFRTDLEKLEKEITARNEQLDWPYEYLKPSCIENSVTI

| SMILES | Potency |
| --- | --- |
| O=C(c1cccnc1)N1CCC2CC1c1c(Cl)cccc12 (stereo unspecified) | inconclusive: 39.8 µM [inhibitor, partial curve, poor fit] |
| O=C(O)/C=C/C(=O)N1CCN(c2ccc(F)cc2)CC1 | inconclusive: 158 µM [inhibitor, single point] |
| O=C(Nc1cccc(C(=O)O)c1O)c1ccco1 | inconclusive: 50.1 µM [inhibitor, partial curve, poor fit] |
| O=C(c1cc(-c2ccccc2Cl)nc2ccc(Br)cc12)N1CCN(c2ccccn2)CC1 | inconclusive: 126 µM [inhibitor, single point] |
| O=c1c2ccccc2sn1-c1ccccc1 | active: 0.562 µM |
| Oc1cccc(/C=N/n2c(C3CCCCC3)n[nH]c2=S)c1 | inconclusive: 100 µM [inhibitor, partial curve, poor fit] |
| CC(=O)N1CCC(C2CCN(S(=O)(=O)c3ccc(C)c(Cl)c3)C2)CC1 (stereo unspecified) | inconclusive: 14.1 µM [inhibitor, full curve] |
| CCCCn1c(N2CCN(Cc3c(F)cccc3Cl)CC2)nc2c1c(=O)[nH]c(=O)n2C | inconclusive: 141 µM [inhibitor, single point] |
| CNC(=S)N1N=C(c2ccc(C)cc2)CC1c1ccc(N(C)C)cc1 (stereo unspecified) | inactive |
| CCC(=O)N(Cc1cc(=O)[nH]c2ccccc12)c1ccc(C)cc1 | inconclusive: 112 µM [inhibitor, partial curve, poor fit] |
| CCOc1ccc(-c2cccc(NS(=O)(=O)c3ccc([N+](=O)[O-])cc3)c2)nn1 | inconclusive: 79.4 µM [inhibitor, partial curve, poor fit] |
| FC(F)Sc1ccc(NC(=S)NC2CCCC2)cc1 | inconclusive: 79.4 µM [inhibitor, partial curve, poor fit] |
| O=C1CCC(C(=O)Nc2cccc(S(=O)(=O)Nc3ccccc3F)c2)=NN1 | active: 31.6 µM |
| COc1ccc(OC)c(S(=O)(=O)Nc2ccc(F)cc2)c1 | inactive |
| Cc1c(C(=O)N(Cc2nc3ccccc3c(=O)[nH]2)C(C)C)oc2ccccc12 | inactive |
| COCCNc1nc(=S)[nH]c2cc(OC)c(OC)cc12 | inconclusive: 39.8 µM [inhibitor, partial curve, poor fit] |
| COc1cc(CN2CCN(C(=O)c3ccccc3F)CC2)cc(OC)c1OC | inconclusive: 0.447 µM [inhibitor, full curve, poor fit] |
| COc1ccc(C(C)=NNc2ccc([N+](=O)[O-])cc2S(=O)(=O)Nc2ccccc2C(=O)O)c(OC)c1 | inconclusive: 56.2 µM [inhibitor, partial curve, poor fit] |
| O=C(Nc1ccc2c(c1)OCO2)C1CCN(C(=O)CSc2ncnc3ccccc23)CC1 | inconclusive: 4.47 µM [inhibitor, full curve, poor fit] |
| COc1ccc(C(=O)/C(=C/O)N=Nc2ccc(F)cc2)cc1 | active: 11.2 µM |
| CCC(=O)Nc1cc(C(=O)O)ccc1Sc1ccc(C)cc1 | inconclusive: 112 µM [inhibitor, single point] |

8 of the compounds above, bar-delimited.
SMILES | Potency
O=C(c1cc(-c2ccccc2Cl)nc2ccc(Br)cc12)N1CCN(c2ccccn2)CC1 | inconclusive: 126 µM [inhibitor, single point]
CCCCn1c(N2CCN(Cc3c(F)cccc3Cl)CC2)nc2c1c(=O)[nH]c(=O)n2C | inconclusive: 141 µM [inhibitor, single point]
FC(F)Sc1ccc(NC(=S)NC2CCCC2)cc1 | inconclusive: 79.4 µM [inhibitor, partial curve, poor fit]
COc1ccc(OC)c(S(=O)(=O)Nc2ccc(F)cc2)c1 | inactive
COc1cc(CN2CCN(C(=O)c3ccccc3F)CC2)cc(OC)c1OC | inconclusive: 0.447 µM [inhibitor, full curve, poor fit]
O=C(Nc1ccc2c(c1)OCO2)C1CCN(C(=O)CSc2ncnc3ccccc23)CC1 | inconclusive: 4.47 µM [inhibitor, full curve, poor fit]
COc1ccc(C(=O)/C(=C/O)N=Nc2ccc(F)cc2)cc1 | active: 11.2 µM
CCC(=O)Nc1cc(C(=O)O)ccc1Sc1ccc(C)cc1 | inconclusive: 112 µM [inhibitor, single point]

Next part:

| SMILES | Potency |
| --- | --- |
| CCCCOCC1CN(CCCC)S(=O)(=O)c2c(cccc2Sc2ccc(SC)cc2)O1 (stereo unspecified) | inconclusive: 100 µM [inhibitor, single point] |
| CSCCC(NC(=O)c1ccc(Cl)cc1Cl)C(=O)Nc1ccc(C)cc1 (stereo unspecified) | inconclusive: 50.1 µM [inhibitor, partial curve, poor fit] |
| CCN(CC)C(=O)C1=C(C)N(Cc2ccccc2)C(=O)C(CC(=O)NC2CCCCC2)C1 (stereo unspecified) | inactive |
| O=C(C[C@H]1CC[C@@H]2[C@H](COC[C@H](O)CN2Cc2cccc(C(F)(F)F)c2)O1)NCCc1ccccc1 | inconclusive: 100 µM [inhibitor, single point] |
| O=C(Nc1ccc(F)c(Cl)c1)c1cc(S(=O)(=O)N2CCCc3ccccc32)ccc1F | inconclusive: 112 µM [inhibitor, partial curve, poor fit] |
| O=C1c2c(-c3ccc(Br)cc3)noc2CCN1Cc1cn(-c2ccccc2)nn1 | inactive |
| Cc1cccc(C)c1-n1cccc1/C=C1\SC(=S)N(c2cccc(C(=O)O)c2)C1=O | active: 44.7 µM |
| N#CCSc1nc2cc(C(=O)N3CCCC3)ccc2c(=O)n1Cc1ccccc1 | inconclusive: 126 µM [inhibitor, single point] |
| O=C(NC1CCCN(c2cc(-c3ccccc3)[nH]n2)C1)c1ccc2cc[nH]c2c1 (stereo unspecified) | inconclusive: 89.1 µM [inhibitor, single point] |
| CCCP(=O)(CCC)CCP(=O)(c1ccccc1)c1ccccc1 | inactive |
| O=C(C1=C(c2ccccc2)S(=O)(=O)CCO1)N(Cc1ccccc1F)c1ccccn1 | inactive |
| Cc1cnc(C(=O)Nc2ccc(C)c(S(=O)(=O)N(C)C)c2)cn1 | inactive |
| CC1=C(C(=O)O)N2C(=O)C(NC(=O)c3ccccc3Cl)C2SC1 (stereo unspecified) | inconclusive: 56.2 µM [inhibitor, partial curve, poor fit] |
| CC(C)NC(=O)NC(C)c1cccc(Cl)c1 (stereo unspecified) | inconclusive: 35.5 µM [inhibitor, partial curve, poor fit] |
| CCCN(Cc1ccc(OCC)cc1)Cc1cc(=O)n2ccc(C)cc2n1 | inconclusive: 44.7 µM [inhibitor, partial curve, poor fit] |
| CC(C)CCNc1nc(-c2ccc3c(c2)NC(=O)CO3)cs1 | inactive |
| O=c1cc(CO)oc(C(Nc2ccccn2)c2ccccc2F)c1O (stereo unspecified) | inconclusive: 31.6 µM [inhibitor, partial curve, poor fit] |
| CC12CCC(=O)N1C(C(=O)Nc1cc(C(F)(F)F)ccc1N1CCCCC1)CS2 (stereo unspecified) | inconclusive: 100 µM [inhibitor, single point] |
| COCCn1c(=O)c(-c2ccc(Cl)cc2)nc2cnc(N3CCNCC3)nc21 | inconclusive: 31.6 µM [inhibitor, partial curve, poor fit] |
| Cc1noc(C)c1[S+](=O)([O-])N1CCC2(CC1)C(=O)NN=C2c1ccccn1 | inconclusive: 56.2 µM [inhibitor, partial curve, poor fit] |

Source: PubChem BioAssay AID1671190 (National Center for Advancing Translational Sciences (NCATS), 2021)
